This assay can be described thus: qHTS Assay for Modulators of Lamin A Splicing. Particulars: HeLa LMNA splicing GFP/RFP minigene ratio, 48 h. In short, it runs like this: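 S3 HeLa stable clones carrying a lamin A-EGFP splicing minigene plus DsRed2 were seeded at 600 cells/well in Opti-MEM with 2% FBS, pin-dosed and incubated 48 h at 37°C. Acumen cytometry (488 nm) gave the GFP/RFP total-intensity ratio.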

The mark [1] stands for this setting: measured here: GFP splicing reporter channel.
Where [2] appears, read: measured here: RFP viability control channel.

The list shows a part of the results. Further columns of the screen follow, without active or inactive calls. The list favours compounds with an active or inconclusive main result. The note in brackets gives the kind of curve behind each potency; many fits are weak.

For `CC(C)CC(COCc1ccc(F)cc1)N1CCN(C(=O)c2cccc(C(F)(F)F)c2)CCC1=O` (stereo not drawn), the AC50 runs as follows: under setting [1], 17.8 µM [rising, single point]; under setting [2], 31.6 µM [rising, single point].

On to `CCNc1nc(Oc2ccc(C(=O)OCC)cc2)nc(SC)n1`, for which, under setting [1], the AC50 is 17.8 µM [rising, partial curve, poor fit].

In the case of `COC(=O)c1cn[nH]c1NC(=S)Nc1ccc(Cl)c(Cl)c1`, under setting [2], the half-maximal activity concentration (AC50) was 31.6 µM [rising, single point].

In the case of `O=C(NC(CSCc1ccccc1)C(=O)N/N=C/c1ccc(O)cc1O)c1ccc([N+](=O)[O-])cc1` (stereo not drawn), the AC50 under setting [2] was 14.1 µM [rising, partial curve].

`O=C1CC(c2ccc(F)cc2)SC(N(c2ccccc2)c2ccccc2)=N1` (stereo not drawn): the AC50 under setting [2] is 35.5 µM [rising, single point].

For the molecule `CCCSCCCNC(=O)c1ccc(C)c(NC(=O)c2nsc3ccccc23)c1`, the AC50 under setting [1] is 0.562 µM [rising, single point].

Consider `Cn1c(SCC(=O)NNC(=O)c2ccc(Br)cc2)nnc1-c1cccnc1`, for which, under setting [1], the AC50 was 0.0126 µM [rising, full curve].

`O=C(Nc1ccc(Oc2ccccc2)cc1)C1CCN(c2c3c(nc4ncnn24)CCC3)CC1`: the AC50 is 31.6 µM [falling, single point] under setting [1] and 25.1 µM [falling, single point] under setting [2].

Regarding `CCN(C(=O)c1ccc2c(Cl)c3c(nc2c1)CCC3)c1ccc(C)c(C)c1`, the AC50 reads like this: under setting [1], 22.4 µM [rising, single point]; under setting [2], 31.6 µM [rising, single point].

As to `COc1nccnc1NS(=O)(=O)c1ccc(N)cc1`, under setting [1], the half-maximal activity concentration (AC50) is 0.891 µM [falling, partial curve].

For `Cc1ccc(C)c(NC(=O)Cc2ccc(S(=O)(=O)N3CCCCC3)s2)c1`, the AC50 under setting [2] was 15.8 µM [rising, single point].

For the molecule `O=C(CN1CCN(c2ccc(O)cc2)CC1)Nc1cc(S(=O)(=O)N2CCOCC2)ccc1Cl`, the AC50 under setting [2] was 22.4 µM [rising, single point].

For `CCc1nnc(NC(=O)c2sc3nc4cc(C)ccc4cc3c2N)s1`, the AC50 is 31.6 µM [falling, single point] under setting [1] and 35.5 µM [falling, single point] under setting [2].

Consider `Cc1cc(Nc2ccc(Br)cc2)nc(C)n1`, for which, under setting [1], the AC50 is 4.47 µM [falling, partial curve].

Regarding `Cc1cccc(OCc2nc(CC(=O)Nc3ccc(Cl)cc3)cs2)c1`, the AC50 under setting [2] was 3.55 µM [falling, partial curve, poor fit].

With `CC[C@H](C)[C@@H]1NC(=O)c2cc([N+](=O)[O-])cc(F)c2NCCCC[C@@H](C(N)=O)NC(=O)[C@H](CCCCN)NC1=O`, the AC50 under setting [2] was 7.08 µM [rising, single point].

For the molecule `Cc1ccc(-n2nc3c4c(cccc4c2=O)-c2ccccc2-3)cc1`, the AC50 runs as follows: under setting [1], 10 µM [falling, single point]; under setting [2], 0.0562 µM [falling, partial curve].

For the molecule `C=CC(=O)NN(C)c1ncc(C(F)(F)F)cc1Cl`, the AC50 is 2.82 µM [falling, partial curve, poor fit] under setting [1] and 20 µM [falling, single point] under setting [2].

On to `O=C(O)c1ccc(N/N=C/c2ccc3c(c2)OCO3)cc1`, for which the AC50 under setting [2] was 1 µM [rising, full curve].

On to `c1ccc(N2CCN(c3ncnc4scc(-c5cccs5)c34)CC2)cc1`, for which the AC50 under setting [2] is 11.2 µM [rising, single point].

In the case of `COc1cccc(-c2cc(NCc3ccccc3OC)ncn2)c1`, the AC50 reads like this: under setting [1], 17.8 µM [falling, single point]; under setting [2], 35.5 µM [falling, single point].

As for `Cc1ccc(C(=O)N/N=C\c2sccc2C)cn1`, under setting [2], the AC50 was 6.31 µM [falling, single point].

On to `CCc1cc(=O)oc2cc(C)c(CN3CCCC(C)C3)c(O)c12` (stereo not drawn), for which the AC50 under setting [2] is 11.2 µM [rising, single point].

As for `Cc1cc(C)nc(-n2nc(C)c3c2N(Cc2ccccc2F)C(=O)CC3c2ccc(Cl)cc2)n1` (stereo not drawn), the AC50 runs as follows: under setting [1], 35.5 µM [falling, single point]; under setting [2], 35.5 µM [falling, single point].

Regarding `Cc1ccccc1-n1c(SCc2c(C)noc2C)nnc1-c1c[nH]c2ccccc12`, under setting [2], the AC50 was 10 µM [rising, partial curve].

Regarding `CNc1nc(Sc2cccc(C(F)(F)F)c2)cc(C(F)(F)F)n1`, the AC50 under setting [1] is 1.58 µM [rising, full curve, poor fit].

On to `Cc1noc(C)c1-c1cc(Nc2ccccc2)ncn1`, for which the AC50 under setting [1] is 14.1 µM [falling, partial curve, poor fit].

Consider `O=C(CN1CCN(S(=O)(=O)c2ccc(Cl)cc2)CC1)Nc1ccc2c(c1)CCC2`, for which the AC50 is, setting by setting: under setting [1], 14.1 µM [rising, single point]; under setting [2], 17.8 µM [rising, single point].

In the case of `Cc1cc(O)cc(C)c1Cl`, the half-maximal activity concentration (AC50) under setting [1] was 0.0141 µM [rising, partial curve, poor fit].

`O=C(Cc1ccc(-c2ccccc2)cc1)NCCS(=O)(=O)N1CCN(c2ccc(F)cc2)CC1`: the AC50 runs as follows: under setting [1], 0.01 µM [falling, full curve, poor fit]; under setting [2], 0.00708 µM [falling, full curve, poor fit].

`COc1ccccc1/C=C1\S/C(=N/NC(=O)c2cccc(Br)c2)NC1=O`: the AC50 is, setting by setting: under setting [1], 4.47 µM [rising, full curve, poor fit]; under setting [2], 5.62 µM [rising, full curve].

For the molecule `COc1ccccc1NC(=O)COC(=O)C1CCN(/C=C/C(=O)C(F)(F)F)CC1`, the AC50 runs as follows: under setting [1], 0.00447 µM [falling, full curve, poor fit]; under setting [2], 0.00447 µM [falling, full curve, poor fit].

`Cc1ccccc1CSCC(=O)Nc1ccccc1-c1ccccc1`: under setting [2], the AC50 was 20 µM [rising, single point].

Turning to `O=C(Nc1ccc2c(c1)OCCO2)C1CCCN(S(=O)(=O)c2cccc3nsnc23)C1` (stereo not drawn), under setting [2], the AC50 was 15.8 µM [rising, single point].

With `Nc1cc(N)nc(SCC(=O)Nc2ccc(Br)cc2Cl)n1`, under setting [2], the AC50 is 11.2 µM [rising, single point].

In the case of `O=C(/C=C/c1ccc(Cl)cc1Cl)NCCSCc1ccccc1`, the AC50 under setting [2] was 14.1 µM [rising, partial curve].

Values taken from PubChem BioAssay AID1487 (National Center for Advancing Translational Sciences (NCATS), 2009).
